Test results from publication PMC3887019.
No constants are given. Whether binding was seen depends on the method and setting. In cells and extracts the contact can be indirect. Some entries that bind do so weakly or less than the wild type. Sequences can lack the tags named with a protein.

Protein sequences, listed by entry. Tags and fused reporters are not part of them.
UniProt Q9UGU0: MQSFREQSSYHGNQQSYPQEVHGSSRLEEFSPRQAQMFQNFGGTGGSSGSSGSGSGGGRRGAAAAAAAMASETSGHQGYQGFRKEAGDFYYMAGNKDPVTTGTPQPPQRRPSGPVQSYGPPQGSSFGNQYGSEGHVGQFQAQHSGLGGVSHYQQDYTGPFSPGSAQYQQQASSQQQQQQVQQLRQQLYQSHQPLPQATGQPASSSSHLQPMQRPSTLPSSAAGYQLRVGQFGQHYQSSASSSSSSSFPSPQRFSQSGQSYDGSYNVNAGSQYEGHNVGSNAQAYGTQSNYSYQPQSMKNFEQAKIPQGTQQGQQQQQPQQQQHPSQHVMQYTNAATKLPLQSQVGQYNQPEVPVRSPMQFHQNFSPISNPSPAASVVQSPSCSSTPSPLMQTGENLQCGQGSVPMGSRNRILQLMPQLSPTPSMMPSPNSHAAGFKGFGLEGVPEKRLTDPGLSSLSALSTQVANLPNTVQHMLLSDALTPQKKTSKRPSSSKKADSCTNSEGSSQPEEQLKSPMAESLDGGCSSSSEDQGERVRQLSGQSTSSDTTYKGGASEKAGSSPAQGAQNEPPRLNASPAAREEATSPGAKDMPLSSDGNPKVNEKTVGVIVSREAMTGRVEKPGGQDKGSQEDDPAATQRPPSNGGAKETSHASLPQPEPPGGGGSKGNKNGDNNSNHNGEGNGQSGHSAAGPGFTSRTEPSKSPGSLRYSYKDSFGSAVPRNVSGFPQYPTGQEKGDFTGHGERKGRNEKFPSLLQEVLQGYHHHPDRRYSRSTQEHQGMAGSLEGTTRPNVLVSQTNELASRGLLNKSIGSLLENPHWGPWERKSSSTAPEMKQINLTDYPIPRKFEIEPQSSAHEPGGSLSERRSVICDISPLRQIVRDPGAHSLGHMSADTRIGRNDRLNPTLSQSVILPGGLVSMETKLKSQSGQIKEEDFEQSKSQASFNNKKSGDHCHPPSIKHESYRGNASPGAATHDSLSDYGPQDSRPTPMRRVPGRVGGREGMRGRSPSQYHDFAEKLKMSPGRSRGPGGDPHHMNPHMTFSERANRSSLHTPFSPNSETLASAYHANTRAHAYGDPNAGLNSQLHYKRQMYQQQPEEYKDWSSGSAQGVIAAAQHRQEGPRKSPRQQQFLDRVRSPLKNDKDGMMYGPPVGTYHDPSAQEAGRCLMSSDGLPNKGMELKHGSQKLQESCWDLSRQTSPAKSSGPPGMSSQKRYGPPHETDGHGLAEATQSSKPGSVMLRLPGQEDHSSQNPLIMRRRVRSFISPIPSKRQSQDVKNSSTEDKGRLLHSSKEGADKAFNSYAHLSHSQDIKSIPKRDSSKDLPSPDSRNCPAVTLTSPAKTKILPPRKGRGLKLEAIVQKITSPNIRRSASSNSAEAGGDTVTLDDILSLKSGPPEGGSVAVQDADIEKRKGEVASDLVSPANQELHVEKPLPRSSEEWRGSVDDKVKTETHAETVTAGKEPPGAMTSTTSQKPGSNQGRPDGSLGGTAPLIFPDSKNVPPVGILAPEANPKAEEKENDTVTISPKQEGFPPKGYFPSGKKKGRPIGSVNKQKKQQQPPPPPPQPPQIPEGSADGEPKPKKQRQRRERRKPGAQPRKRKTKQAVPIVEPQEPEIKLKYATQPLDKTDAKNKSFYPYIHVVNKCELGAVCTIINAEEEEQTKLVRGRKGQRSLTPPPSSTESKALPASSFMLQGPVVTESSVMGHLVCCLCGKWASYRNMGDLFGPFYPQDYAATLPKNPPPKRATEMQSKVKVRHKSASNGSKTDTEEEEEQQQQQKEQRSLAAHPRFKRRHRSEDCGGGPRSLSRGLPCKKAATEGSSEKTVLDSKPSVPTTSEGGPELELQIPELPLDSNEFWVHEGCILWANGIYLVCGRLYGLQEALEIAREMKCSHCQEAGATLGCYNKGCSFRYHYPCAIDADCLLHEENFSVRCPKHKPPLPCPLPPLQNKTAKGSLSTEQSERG

Target: T1, EGFP-NRF2 (human) (UniProt Q16236)
T1 sequence: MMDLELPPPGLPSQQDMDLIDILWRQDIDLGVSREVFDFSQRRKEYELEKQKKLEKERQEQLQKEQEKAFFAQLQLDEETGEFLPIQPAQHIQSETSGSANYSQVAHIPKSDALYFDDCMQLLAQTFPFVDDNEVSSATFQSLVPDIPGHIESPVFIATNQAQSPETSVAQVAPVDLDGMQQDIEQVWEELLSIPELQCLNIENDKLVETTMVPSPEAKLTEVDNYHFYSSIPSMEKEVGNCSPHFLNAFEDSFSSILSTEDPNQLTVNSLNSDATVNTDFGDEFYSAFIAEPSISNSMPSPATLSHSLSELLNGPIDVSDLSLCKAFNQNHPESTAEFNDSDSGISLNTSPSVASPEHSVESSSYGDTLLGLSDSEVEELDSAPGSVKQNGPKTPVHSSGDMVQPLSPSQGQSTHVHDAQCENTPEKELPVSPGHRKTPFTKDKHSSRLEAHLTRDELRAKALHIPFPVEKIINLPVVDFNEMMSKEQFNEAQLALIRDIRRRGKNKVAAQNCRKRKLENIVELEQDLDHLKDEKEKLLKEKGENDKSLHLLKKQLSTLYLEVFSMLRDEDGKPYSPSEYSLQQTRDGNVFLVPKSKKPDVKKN
Assay: co-IP; HeLa cells co-transfected with EGFP-NRF2 and Myc-SPBP, harvested 20 hours post transfection; EGFP-NRF2 precipitated with Chromotek GFP-Trap; western blot

Myc-SPBP (from UniProt Q9UGU0 1-1960)
binding: binds weakly
